According to the supplement of paper PMC10849652:
Some of the results follow.

The chains behind the UniProt entries cited, without tags or fusion partners. Where a name states a change or a piece, a line headed by the entry shows the natural chain unless it says otherwise.
UniProt Q9Y608: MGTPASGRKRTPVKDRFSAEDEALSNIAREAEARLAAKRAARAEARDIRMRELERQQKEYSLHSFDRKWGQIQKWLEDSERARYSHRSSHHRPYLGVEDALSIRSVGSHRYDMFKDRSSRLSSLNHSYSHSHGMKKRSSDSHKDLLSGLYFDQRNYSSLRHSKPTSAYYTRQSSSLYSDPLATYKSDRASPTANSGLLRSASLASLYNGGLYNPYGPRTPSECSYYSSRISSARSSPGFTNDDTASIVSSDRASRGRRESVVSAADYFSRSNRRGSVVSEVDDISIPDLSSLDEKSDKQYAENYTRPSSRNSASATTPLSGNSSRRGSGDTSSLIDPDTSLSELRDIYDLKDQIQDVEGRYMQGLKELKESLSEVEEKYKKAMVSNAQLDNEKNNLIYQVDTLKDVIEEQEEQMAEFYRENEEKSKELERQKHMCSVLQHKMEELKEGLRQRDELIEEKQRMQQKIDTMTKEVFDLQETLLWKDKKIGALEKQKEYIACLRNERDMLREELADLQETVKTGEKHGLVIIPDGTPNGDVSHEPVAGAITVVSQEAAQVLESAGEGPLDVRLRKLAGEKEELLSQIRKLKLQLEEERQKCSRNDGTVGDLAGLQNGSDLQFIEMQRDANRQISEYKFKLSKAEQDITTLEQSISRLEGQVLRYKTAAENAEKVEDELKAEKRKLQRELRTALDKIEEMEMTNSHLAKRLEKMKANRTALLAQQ
UniProt P20645: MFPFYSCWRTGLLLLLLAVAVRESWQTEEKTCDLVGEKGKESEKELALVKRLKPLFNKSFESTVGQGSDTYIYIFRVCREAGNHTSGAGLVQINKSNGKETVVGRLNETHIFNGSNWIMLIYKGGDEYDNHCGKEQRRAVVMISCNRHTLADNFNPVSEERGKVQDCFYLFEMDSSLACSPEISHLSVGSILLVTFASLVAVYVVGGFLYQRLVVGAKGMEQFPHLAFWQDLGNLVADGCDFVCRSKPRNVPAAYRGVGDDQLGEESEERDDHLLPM
UniProt P62312: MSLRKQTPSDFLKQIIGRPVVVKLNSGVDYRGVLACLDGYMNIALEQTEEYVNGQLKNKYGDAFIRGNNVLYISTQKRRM
UniProt P09960: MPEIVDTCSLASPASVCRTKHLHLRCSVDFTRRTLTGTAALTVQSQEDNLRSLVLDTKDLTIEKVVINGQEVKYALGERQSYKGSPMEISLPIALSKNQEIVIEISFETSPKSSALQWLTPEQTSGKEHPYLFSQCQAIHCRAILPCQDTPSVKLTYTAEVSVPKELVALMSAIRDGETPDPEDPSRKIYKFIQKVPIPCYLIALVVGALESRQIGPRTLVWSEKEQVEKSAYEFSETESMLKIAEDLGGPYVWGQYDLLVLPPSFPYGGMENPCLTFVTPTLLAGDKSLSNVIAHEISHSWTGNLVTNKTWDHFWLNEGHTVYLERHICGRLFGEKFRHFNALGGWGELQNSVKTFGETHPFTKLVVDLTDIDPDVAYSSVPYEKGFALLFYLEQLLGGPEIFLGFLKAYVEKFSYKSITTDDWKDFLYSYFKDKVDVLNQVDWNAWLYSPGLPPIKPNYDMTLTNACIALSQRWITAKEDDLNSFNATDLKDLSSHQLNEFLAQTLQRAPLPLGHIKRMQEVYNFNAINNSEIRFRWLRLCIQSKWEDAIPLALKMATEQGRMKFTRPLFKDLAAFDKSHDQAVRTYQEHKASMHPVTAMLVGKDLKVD
UniProt Q66K74: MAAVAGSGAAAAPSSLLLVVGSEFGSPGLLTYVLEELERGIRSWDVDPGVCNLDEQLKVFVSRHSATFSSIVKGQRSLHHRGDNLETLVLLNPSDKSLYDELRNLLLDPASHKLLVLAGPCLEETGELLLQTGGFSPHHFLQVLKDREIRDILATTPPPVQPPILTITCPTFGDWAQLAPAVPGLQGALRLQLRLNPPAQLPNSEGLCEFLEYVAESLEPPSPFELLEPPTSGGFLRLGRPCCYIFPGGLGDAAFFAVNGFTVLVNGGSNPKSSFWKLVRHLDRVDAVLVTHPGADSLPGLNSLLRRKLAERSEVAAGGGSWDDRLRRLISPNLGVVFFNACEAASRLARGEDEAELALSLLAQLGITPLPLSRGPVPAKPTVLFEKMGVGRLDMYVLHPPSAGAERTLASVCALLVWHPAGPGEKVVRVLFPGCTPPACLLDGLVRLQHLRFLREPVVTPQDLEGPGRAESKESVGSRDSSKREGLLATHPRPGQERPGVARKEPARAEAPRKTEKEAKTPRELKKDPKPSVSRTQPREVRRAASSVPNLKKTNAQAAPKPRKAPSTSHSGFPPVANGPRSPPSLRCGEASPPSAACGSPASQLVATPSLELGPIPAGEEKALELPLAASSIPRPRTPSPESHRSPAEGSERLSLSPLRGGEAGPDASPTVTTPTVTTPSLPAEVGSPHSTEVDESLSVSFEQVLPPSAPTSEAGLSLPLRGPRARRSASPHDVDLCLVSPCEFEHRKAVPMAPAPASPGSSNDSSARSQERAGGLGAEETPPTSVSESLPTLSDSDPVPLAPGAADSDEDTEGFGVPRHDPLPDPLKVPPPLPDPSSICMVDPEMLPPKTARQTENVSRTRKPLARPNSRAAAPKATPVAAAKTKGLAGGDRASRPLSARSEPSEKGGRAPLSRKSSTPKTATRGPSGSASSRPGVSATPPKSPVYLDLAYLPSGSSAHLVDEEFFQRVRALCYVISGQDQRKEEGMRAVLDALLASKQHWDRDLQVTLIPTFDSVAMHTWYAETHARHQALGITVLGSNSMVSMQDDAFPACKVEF
UniProt Q9Y333: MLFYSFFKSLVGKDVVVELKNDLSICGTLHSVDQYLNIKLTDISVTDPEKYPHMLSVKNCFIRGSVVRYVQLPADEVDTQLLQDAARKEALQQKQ
UniProt Q9HD34: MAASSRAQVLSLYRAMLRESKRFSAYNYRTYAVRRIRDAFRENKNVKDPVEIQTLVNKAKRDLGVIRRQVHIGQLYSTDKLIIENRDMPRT
UniProt Q6ZN28: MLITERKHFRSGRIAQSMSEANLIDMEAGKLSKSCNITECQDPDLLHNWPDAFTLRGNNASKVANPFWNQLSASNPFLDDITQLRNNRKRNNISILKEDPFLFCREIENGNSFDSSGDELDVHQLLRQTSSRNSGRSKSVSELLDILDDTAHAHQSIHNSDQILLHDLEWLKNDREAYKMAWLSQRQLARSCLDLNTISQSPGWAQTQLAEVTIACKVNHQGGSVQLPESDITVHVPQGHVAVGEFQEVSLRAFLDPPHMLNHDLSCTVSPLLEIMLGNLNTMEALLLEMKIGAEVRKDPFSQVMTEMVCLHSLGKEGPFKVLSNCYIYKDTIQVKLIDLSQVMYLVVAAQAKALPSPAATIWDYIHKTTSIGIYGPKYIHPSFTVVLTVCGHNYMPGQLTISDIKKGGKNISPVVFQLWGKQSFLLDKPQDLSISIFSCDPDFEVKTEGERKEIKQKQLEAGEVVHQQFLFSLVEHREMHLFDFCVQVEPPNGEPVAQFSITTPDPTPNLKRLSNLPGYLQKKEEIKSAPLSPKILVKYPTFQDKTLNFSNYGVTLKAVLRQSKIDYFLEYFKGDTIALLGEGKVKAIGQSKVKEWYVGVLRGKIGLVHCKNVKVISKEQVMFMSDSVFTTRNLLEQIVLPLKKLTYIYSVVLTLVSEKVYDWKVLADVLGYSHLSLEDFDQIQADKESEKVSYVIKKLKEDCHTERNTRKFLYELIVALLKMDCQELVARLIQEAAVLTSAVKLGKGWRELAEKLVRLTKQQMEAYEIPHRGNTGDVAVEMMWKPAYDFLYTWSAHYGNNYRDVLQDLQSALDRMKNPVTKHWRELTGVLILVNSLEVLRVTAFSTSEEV
UniProt O60337: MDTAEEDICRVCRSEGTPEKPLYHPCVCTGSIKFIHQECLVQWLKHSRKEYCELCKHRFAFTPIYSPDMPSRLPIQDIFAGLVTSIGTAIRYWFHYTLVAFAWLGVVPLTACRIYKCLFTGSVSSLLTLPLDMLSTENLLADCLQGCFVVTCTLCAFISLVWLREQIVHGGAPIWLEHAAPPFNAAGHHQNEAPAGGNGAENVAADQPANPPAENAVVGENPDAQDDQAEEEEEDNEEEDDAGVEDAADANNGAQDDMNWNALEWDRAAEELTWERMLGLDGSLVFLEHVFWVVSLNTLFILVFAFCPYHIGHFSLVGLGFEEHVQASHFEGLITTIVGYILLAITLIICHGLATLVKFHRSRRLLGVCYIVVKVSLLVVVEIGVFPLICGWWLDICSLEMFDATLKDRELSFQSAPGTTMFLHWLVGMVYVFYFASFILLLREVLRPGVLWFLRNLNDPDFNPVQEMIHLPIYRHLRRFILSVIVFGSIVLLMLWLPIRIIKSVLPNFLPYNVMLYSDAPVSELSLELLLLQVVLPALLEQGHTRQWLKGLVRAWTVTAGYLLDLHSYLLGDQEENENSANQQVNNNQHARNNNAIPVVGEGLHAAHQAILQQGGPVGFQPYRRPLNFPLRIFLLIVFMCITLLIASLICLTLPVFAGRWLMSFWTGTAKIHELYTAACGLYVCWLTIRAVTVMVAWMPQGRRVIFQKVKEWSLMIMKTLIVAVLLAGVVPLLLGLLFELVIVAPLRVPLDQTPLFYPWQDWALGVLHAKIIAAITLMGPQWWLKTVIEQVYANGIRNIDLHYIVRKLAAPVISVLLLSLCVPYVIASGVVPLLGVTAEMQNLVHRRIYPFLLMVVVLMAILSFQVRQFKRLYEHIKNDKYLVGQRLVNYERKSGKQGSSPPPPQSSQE
UniProt Q9NX47: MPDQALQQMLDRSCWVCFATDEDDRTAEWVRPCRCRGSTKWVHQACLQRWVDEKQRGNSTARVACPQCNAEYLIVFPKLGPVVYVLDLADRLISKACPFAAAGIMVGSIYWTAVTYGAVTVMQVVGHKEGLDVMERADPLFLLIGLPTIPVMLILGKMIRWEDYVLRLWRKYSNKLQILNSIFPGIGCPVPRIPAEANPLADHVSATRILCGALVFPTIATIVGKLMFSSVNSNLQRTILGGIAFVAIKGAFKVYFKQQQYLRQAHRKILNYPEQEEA
UniProt P49641: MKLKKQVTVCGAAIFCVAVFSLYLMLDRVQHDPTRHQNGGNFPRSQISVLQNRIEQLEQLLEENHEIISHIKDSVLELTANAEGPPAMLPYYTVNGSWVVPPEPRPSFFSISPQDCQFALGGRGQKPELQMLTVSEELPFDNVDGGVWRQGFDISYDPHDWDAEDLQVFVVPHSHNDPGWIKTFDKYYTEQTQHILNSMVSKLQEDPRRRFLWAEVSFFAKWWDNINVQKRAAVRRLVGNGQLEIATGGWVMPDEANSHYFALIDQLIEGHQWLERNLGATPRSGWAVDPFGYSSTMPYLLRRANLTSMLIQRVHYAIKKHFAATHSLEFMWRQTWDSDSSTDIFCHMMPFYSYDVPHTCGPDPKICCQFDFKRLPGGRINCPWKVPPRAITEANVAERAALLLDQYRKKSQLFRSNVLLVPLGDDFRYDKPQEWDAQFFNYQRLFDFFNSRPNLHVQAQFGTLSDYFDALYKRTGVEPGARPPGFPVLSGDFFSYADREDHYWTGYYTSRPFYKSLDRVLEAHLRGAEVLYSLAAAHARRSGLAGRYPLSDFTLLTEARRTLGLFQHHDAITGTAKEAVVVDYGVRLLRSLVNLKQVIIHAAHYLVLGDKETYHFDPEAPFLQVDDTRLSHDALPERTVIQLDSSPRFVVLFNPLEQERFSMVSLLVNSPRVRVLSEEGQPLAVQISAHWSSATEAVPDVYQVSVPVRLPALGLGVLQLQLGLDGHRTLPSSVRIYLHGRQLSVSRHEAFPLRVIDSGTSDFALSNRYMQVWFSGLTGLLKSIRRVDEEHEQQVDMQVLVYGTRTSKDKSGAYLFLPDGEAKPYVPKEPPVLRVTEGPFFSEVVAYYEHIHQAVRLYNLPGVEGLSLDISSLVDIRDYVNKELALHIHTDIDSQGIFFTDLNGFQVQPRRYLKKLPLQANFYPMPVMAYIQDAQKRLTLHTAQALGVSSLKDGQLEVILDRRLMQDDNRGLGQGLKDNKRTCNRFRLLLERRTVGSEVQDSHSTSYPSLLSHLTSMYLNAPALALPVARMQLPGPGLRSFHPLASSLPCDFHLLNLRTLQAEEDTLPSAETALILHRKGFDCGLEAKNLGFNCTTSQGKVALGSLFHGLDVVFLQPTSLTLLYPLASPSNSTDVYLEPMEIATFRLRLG
UniProt P55145: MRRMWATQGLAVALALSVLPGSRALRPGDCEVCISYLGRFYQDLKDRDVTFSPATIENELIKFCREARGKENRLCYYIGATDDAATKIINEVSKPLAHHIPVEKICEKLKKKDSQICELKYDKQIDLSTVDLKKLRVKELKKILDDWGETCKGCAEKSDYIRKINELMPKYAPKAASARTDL
UniProt Q15691: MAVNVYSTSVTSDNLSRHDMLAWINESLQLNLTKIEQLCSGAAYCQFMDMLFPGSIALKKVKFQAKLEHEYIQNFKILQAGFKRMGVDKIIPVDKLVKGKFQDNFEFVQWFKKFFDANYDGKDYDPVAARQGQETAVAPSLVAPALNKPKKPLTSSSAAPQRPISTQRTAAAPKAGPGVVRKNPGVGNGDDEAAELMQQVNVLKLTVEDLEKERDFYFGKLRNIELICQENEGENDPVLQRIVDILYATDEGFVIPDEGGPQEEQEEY

Assays:
Experiment in all cases: log2 fold change, soluble protein after heating vs DMSO (PISA); higher = thermal stabilisation; K562 cells, 10 uM, 30 min; active = over 0.2 and 3.5 SD of the protein, either way, in both replicates (recomputed)
[1] = compound: CC[C@@H]1C(=O)N(C)c2cnc(Nc3ccc(C(=O)NC4CCN(C)CC4)cc3OC)nc2N1C1CCCC1
In short: (§1)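 For each measurement, 10 μM compound was applied for 30 min to K562 cells at 2×10^6 cells/mL. Aliquots were heated for 3 min across 48°C-58°C, pooled, and extracted in PBS with 0.5% NP-40 at 4°C; the supernatant after 21,000xg for 90 min was soluble protein. This was quantified by TMTpro 16plex LC-MS/MS with channel sums equalised, and thermal stability was reported relative to control samples from duplicates, on a log2 fold-change scale.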

volasertib = compound: CC[C@@H]1C(=O)N(C)c2cnc(Nc3ccc(C(=O)N[C@H]4CC[C@H](N5CCN(CC6CC6)CC5)CC4)cc3OC)nc2N1C(C)C [volasertib]
In short: as §1

[2] = compound: CC[C@H](C)N1C=C(C2=C(C=C(C=C21)C3=CN=C(C=C3)N4CCNCC4)C(=O)NCC5=C(C=C(NC5=O)C)C)C
In short: as §1

epoxomicin = compound: CC[C@H](C)[C@@H](C(=O)N[C@@H]([C@@H](C)O)C(=O)N[C@@H](CC(C)C)C(=O)[C@]1(CO1)C)NC(=O)[C@H]([C@@H](C)CC)N(C)C(=O)C [epoxomicin]
In short: as §1

[3] = compound: CCn1c(C(=O)N(C2CC2)C2CC2)cc2c3c(ncn3C)c(Nc3cc(C)n(C)n3)nc21
In short: as §1

[4] = compound: CCn1cc(-c2ccnc3[nH]c(-c4cccc(CN(C)C)c4)cc23)c(-c2ccc(NC(=O)N(C)C)cc2)n1
In short: as §1

[5] = compound: CN(C)CC(=O)Nc1ccc2[nH]c(=O)c3ccccc3c2c1
In short: as §1

rosiglitazone = compound: CN(CCOC1=CC=C(C=C1)C[C@H]2C(=O)NC(=O)S2)C3=CC=CC=N3 (racemic) [rosiglitazone]
In short: as §1

[6] = compound: CN1C2=C(C3=C1C(=O)N(N=C3)CC4=CC(=CC=C4)N)SC(=C2)S(=O)C
In short: as §1

[7] = compound: CN1CCC(CNc2ccc3ncc(-c4cccc(OC(F)(F)F)c4)n3n2)CC1
In short: as §1

Measured: log2 fold change

LRRFIP2 (UniProt Q9Y608)
inactive: [1] 0.067 | volasertib 0.08 | [2] 0.007 | epoxomicin 0.018 | [3] -0.036 | [4] -0.017 | [5] 0 | rosiglitazone -0.003 | [6] -0.018 | [7] -0.019

MACO1 (UniProt Q8N5G2)
inactive: [1] 0.031 | volasertib -0.011 | [2] -0.029 | epoxomicin 0.035 | [3] -0.013 | [4] -0.004 | [5] 0.051 | rosiglitazone -0.035 | [6] 0.042 | [7] 0.024

LYSMD3 (UniProt Q7Z3D4)
inactive: [1] -0.092 | volasertib -0.1 | [2] -0.024 | epoxomicin -0.009 | [3] 0.054 | [4] 0 | [5] -0.016 | rosiglitazone -0.044 | [6] -0.061 | [7] -0.075

MAN2B1 (UniProt O00754)
inactive: [1] -0.015 | volasertib 0.081 | [2] 0.029 | epoxomicin 0.024 | [3] -0.023 | [4] 0.068 | [5] -0.011 | rosiglitazone 0.011 | [6] -0.03 | [7] -0.01

M6PR (UniProt P20645)
inactive: [1] 0.02 | volasertib 0 | [2] -0.04 | epoxomicin 0.046 | [3] -0.037 | [4] -0.061 | [5] -0.014 | rosiglitazone -0.039 | [6] 0.007 | [7] -0.009

MAN1B1 (UniProt Q9UKM7)
inactive: [1] -0.065 | volasertib -0.179 | [2] 0.027 | epoxomicin -0.011 | [3] -0.049 | [4] -0.05 | [5] 0.021 | rosiglitazone 0.064 | [6] -0.018 | [7] -0.175

MALSU1 (UniProt Q96EH3)
inactive: [1] 0.026 | volasertib 0.028 | [2] -0.026 | epoxomicin 0.009 | [3] 0.015 | [4] 0.082 | [5] -0.046 | rosiglitazone -0.045 | [6] -0.054 | [7] -0.001

MAPK3 (UniProt P27361)
inactive: [1] -0.007 | volasertib -0.022 | [2] 0.013 | epoxomicin 0.064 | [3] 0.003 | [4] -0.037 | [5] 0.072 | rosiglitazone 0.018 | [6] 0.063 | [7] 0.064

LSM6 (UniProt P62312)
inactive: [1] -0.02 | volasertib 0.065 | [2] -0.05 | epoxomicin -0.079 | [3] 0.024 | [4] -0.096 | [5] -0.005 | rosiglitazone -0.033 | [6] -0.063 | [7] 0.265

LTA4H (UniProt P09960)
inactive: [1] 0.016 | volasertib -0.064 | [2] 0.033 | epoxomicin 0.004 | [3] -0.004 | [4] -0.057 | [5] -0.003 | rosiglitazone 0.028 | [6] -0.086 | [7] -0.02

LSM7 (UniProt Q9UK45)
inactive: [1] 0.043 | volasertib 0.065 | [2] -0.082 | epoxomicin -0.008 | [3] 0.038 | [4] 0 | [5] -0.046 | rosiglitazone 0.039 | [6] -0.047 | [7] -0.001

MAP7D1 (UniProt Q3KQU3)
inactive: [1] 0.206 | volasertib 0.117 | [2] 0.022 | epoxomicin -0.186 | [3] -0.062 | [4] 0.154 | [5] -0.083 | rosiglitazone -0.092 | [6] 0.353 | [7] 0.206

MAP1B (UniProt P46821)
inactive: [1] 0.057 | volasertib 0.097 | [2] -0.018 | epoxomicin -0.017 | [3] -0.02 | [4] 0.033 | [5] -0.046 | rosiglitazone -0.028 | [6] 0.013 | [7] 0.089

MAP1S (UniProt Q66K74)
inactive: [1] -0.046 | volasertib -0.096 | [2] 0.044 | epoxomicin 0.017 | [3] -0.046 | [4] 0.017 | [5] -0.003 | rosiglitazone 0.052 | [6] -0.033 | [7] -0.021

MAN2C1 isoform 4 (UniProt Q9NTJ4)
inactive: [1] 0.075 | volasertib 0.059 | [2] -0.113 | epoxomicin 0.044 | [3] -0.025 | [4] 0.02 | [5] -0.052 | rosiglitazone 0.048 | [6] 0.035 | [7] -0.061

LYPLA1 (UniProt O75608)
inactive: [1] 0.017 | volasertib -0.025 | [2] -0.001 | epoxomicin 0.032 | [3] 0.053 | [4] -0.027 | [5] 0.018 | rosiglitazone 0.021 | [6] -0.048 | [7] 0.035

LSM2 (UniProt Q9Y333)
inactive: [1] 0.057 | volasertib 0.009 | [2] -0.027 | epoxomicin 0.007 | [3] 0.042 | [4] 0.004 | [5] 0.014 | rosiglitazone 0.006 | [6] -0.061 | [7] 0.031

LSM1 (UniProt O15116)
inactive: [1] 0.014 | volasertib 0.066 | [2] -0.053 | epoxomicin -0.018 | [3] 0.002 | [4] -0.074 | [5] 0.01 | rosiglitazone 0.045 | [6] -0.046 | [7] 0

MAPRE2 (UniProt Q15555)
inactive: [1] -0.028 | volasertib -0.245 | [2] 0.109 | epoxomicin -0.204 | [3] -0.036 | [4] 0.028 | [5] 0.102 | rosiglitazone -0.038 | [6] 0.13 | [7] -0.115

LYRM4 (UniProt Q9HD34)
inactive: [1] 0.03 | volasertib 0.005 | [2] 0.022 | epoxomicin 0.075 | [3] 0.008 | [4] -0.014 | [5] 0 | rosiglitazone -0.063 | [6] -0.106 | [7] 0.072

MACC1 (UniProt Q6ZN28)
inactive: [1] 0.005 | volasertib -0.036 | [2] -0.173 | epoxomicin 0.033 | [3] -0.027 | [4] -0.04 | [5] -0.008 | rosiglitazone 0.027 | [6] -0.121 | [7] -0.084

MARCHF6 (UniProt O60337)
inactive: [1] -0.005 | volasertib -0.125 | [2] 0.039 | epoxomicin 0.171 | [3] 0.033 | [4] -0.011 | [5] -0.017 | rosiglitazone -0.004 | [6] -0.029 | [7] -0.21

MARCHF5 (UniProt Q9NX47)
inactive: [1] 0.017 | volasertib 0.036 | [2] -0.02 | epoxomicin 0.033 | [3] -0.072 | [4] -0.031 | [5] 0.04 | rosiglitazone 0.028 | [6] -0.082 | [7] 0.11

MAGED2 (UniProt Q9UNF1)
inactive: [1] 0.079 | volasertib -0.039 | [2] -0.282 | epoxomicin -0.1 | [3] -0.226 | [4] -0.042 | [5] 0.002 | rosiglitazone 0.132 | [6] 0.185 | [7] -0.142

MAK16 (UniProt Q9BXY0)
inactive: [1] 0.111 | volasertib 0.017 | [2] -0.001 | epoxomicin -0.146 | [3] 0.046 | [4] 0.058 | [5] -0.139 | rosiglitazone -0.114 | [6] 0.219 | [7] 0.244

MAGT1 (UniProt Q9H0U3)
inactive: [1] 0.076 | volasertib -0.002 | [2] 0.003 | epoxomicin -0.006 | [3] 0.045 | [4] 0.003 | [5] -0.006 | rosiglitazone 0.008 | [6] 0.042 | [7] 0.131

MAN2A2 (UniProt P49641)
inactive: [1] 0.058 | volasertib -0.063 | [2] 0.007 | epoxomicin 0.045 | [3] -0.014 | [4] 0.005 | [5] -0.013 | rosiglitazone 0.019 | [6] 0.035 | [7] 0.052

MAN2A1 (UniProt Q16706)
inactive: [1] 0.016 | volasertib -0.008 | [2] -0.001 | epoxomicin -0.023 | [3] -0.007 | [4] 0.018 | [5] 0.018 | rosiglitazone 0.013 | [6] -0.04 | [7] 0.057

MANF (UniProt P55145)
inactive: [1] 0.012 | volasertib 0.065 | [2] -0.033 | epoxomicin -0.024 | [3] 0.013 | [4] 0.007 | [5] -0.015 | rosiglitazone -0.017 | [6] -0.056 | [7] -0.007

Two consecutive entries from above:
LRRFIP2 (UniProt Q9Y608)
inactive: [1] 0.067 | volasertib 0.08 | [2] 0.007 | epoxomicin 0.018 | [3] -0.036 | [4] -0.017 | [5] 0 | rosiglitazone -0.003 | [6] -0.018 | [7] -0.019

MACO1 (UniProt Q8N5G2)
inactive: [1] 0.031 | volasertib -0.011 | [2] -0.029 | epoxomicin 0.035 | [3] -0.013 | [4] -0.004 | [5] 0.051 | rosiglitazone -0.035 | [6] 0.042 | [7] 0.024

Next part.

MAPRE1 (UniProt Q15691)
inactive: [1] -0.091 | volasertib -0.175 | [2] 0.064 | epoxomicin 0.031 | [3] 0.007 | [4] -0.005 | [5] 0.003 | rosiglitazone 0.054 | [6] -0.037 | [7] -0.056
